Assay results from article PMC9848351, “Discovery of new pyridine-quinoline hybrids as competitive and non-competitive PIM-1 kinase inhibitors with apoptosis induction and caspase 3/7 activation capabilities” (Journal of Enzyme Inhibition and Medicinal Chemistry, 2023).

What was measured:
[1] = system: prostate cancer cell line (PC-3); test: MTT anticancer activity, PC-3; format: cell-based, human; conditions: for PC-3 SI: selectivity index, Wi-38 versus PC-3
Description: (§1) Anticancer effect of the above-mentioned compounds was evaluated using four human cancer cell lines. Colon cancer cells (Caco-2), myeloid leukaemia cell line (NFS-60), liver cancer cell line (HepG-2) and prostate cancer cell line (PC-3) using MTT method was used for assaying cell viability[26] (Supplementary Page S55).
(§2) All final compounds were evaluated against four human cancer cell lines namely; liver cancer (HepG2) (ATCC® HB-8065™), colon cancer (Caco-2) (ATCC® HTB-37™), leukaemia cancer (NFS-60) (ATCC® CRL-1838™), and prostate cancer (PC-3) (ATCC® CRL-1435™) using doxorubicin (Dox) as the reference drug being widely used in tumour management utilising microculture MTT assay, declared by Mosmann[26] (Table 1 in Supplementary Material, Figures 5–8). […]
(§3) MTT method was used for assaying cell viability 25. Twenty microliters of 5 mg/ml MTT (Sigma, USA) was added to each well and the plate was incubated at 37 °C for 3 h. Then MTT solution was removed, 100 µl DMSO was used and the absorbance of each well was measured with a microplate reader ( BMG LabTech, Germany) at 570 nm. The effective concentration (IC 50) and safe dose (EC100) values of the tested compounds that cause 50% and 100% cell viability were estimated by the Graphpad Instat software.
(§4) Determination of the anticancer activity
(§5) Anticancer effect of the above-mentioned compounds was evaluated using four human cancer cell lines. Colon cancer cells (Caco-2) were maintained in DMEM (Lonza, USA) containing 10% FBS while myeloid leukemia cell line (NFS-60), liver cancer cell line (HepG-2) and prostate cancer cell line (PC-3) were cultured in RPMI-1640 (Lonza, USA) supplemented with 10% FBS. All cancer cells (5x10^3 cells/well) were seeded in sterile 96-well plates. After 24h, serial concentrations of the tested compounds and Dox were incubated with four cancer cell lines for 72 h at 37 °C in 5% CO2 incubator. MTT method was done as described above. The Graphpad Instat software was used for calculating the half maximal inhibitory concentration (IC50) values. Furthermore, phase contrast inverted microscope with a digital camera (Olympus, Japan) was used for investigating […]
(§6) safest anticancer compounds. […]

[2] = system: myeloid leukaemia cell line (NFS-60); test: MTT anticancer activity, NFS-60; format: cell-based; conditions: selectivity index, Wi-38 versus NFS-60
Description: as §1, §2, §3, §4, §5, §6

[3] = system: liver cancer cell line (HepG-2); test: MTT anticancer activity, HepG-2; format: cell-based, human; conditions: selectivity index, Wi-38 versus HepG-2
Description: as §1, §2, §3, §4, §5, §6

SMILES	PC-3 SI [1]	NFS-60 SI [2]	HepG-2 SI [3]	PC-3 LE ([1]; ligand efficiency from IC50 and number of heavy atoms)	PC-3 LLE ([1]; ligand lipophilic efficiency, potency in terms of lipophilicity)
COc1ccc2nc(N3CCCCC3)c(-c3cc(-c4cccc(O)c4)[nH]c(=O)c3C#N)cc2c1 [5f, 6-(3-Hydroxyphenyl)-4-(6-methoxy-2-(piperidin-1-yl)quinolin-3-yl)-2-oxo-1,2-dihydropyridine-3-carbonitrile]	0.661	0.696	0.788		
N#Cc1c(-c2cc3ccccc3[nH]c2=O)cc(-c2cccc(O)c2)nc1S [14a, 6-(3-Hydroxyphenyl)-2-mercapto-4-(2-oxo-1,2-dihydroquinolin-3-yl)pyridine-3-carbonitrile]	17.798	12.888	23.543	0.39	5.10
CC(=O)Oc1cccc(-c2cc(-c3cc4cc(Cl)ccc4nc3N3CCOCC3)c(C#N)c(=O)[nH]2)c1 [7b, 3-(4-(6-Chloro-2-morpholin-4-yl-quinolin-3-yl)-5-cyano-6-oxo-1,6-dihydropyridin-2-yl)phenyl acetate]	1.037	1.308	1.378		
N#Cc1c(-c2cc3ccccc3nc2N2CCOCC2)cc(-c2cccc(O)c2)[nH]c1=O [5a, 6-(3-Hydroxyphenyl)-4-(morpholin-4-yl-quinolin-3-yl)-2-oxo-1,2-dihydropyridine-3-carbonitrile]	0.842	1.907	1.753		
